Measurements reported in PubChem BioAssay AID493246 (Drosophila RNAi Screening Center, 2011)
The screen tested about 21,000 reagents; this is a random part of those with a known target gene and a result. In the full data, 429 (2%) got an active call. 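Values are raw and not normalised between plates; calls rest on per-plate z-scores that were not deposited.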 A plus sign joins genes that one reagent is predicted to hit. Not stated in the record: the amount of reagent, the time to read-out.

Assay: 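Identify essential fly genes by loss of cell viability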 (primary screen)
System: Drosophila Kc and S2R+ cells
Reagent: long dsRNA against Drosophila genes
Measurement: 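Raw, unnormalised count of remaining cells in each well; per-plate z-scores of cell number underlie the calls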
Reading the numbers: Kc cell number and S2R+ cell number: higher = more cells remaining
Active means: 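Active when the per-plate z-score of cell number is 3 or more in the direction of fewer cells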

Pli [DRSC16792]: Kc cell number, rep 1 = 1.58e6; Kc cell number, rep 2 = 1.72e6; S2R+ cell number, rep 1 = 1.34e6; S2R+ cell number, rep 2 = 1.39e6; Outcome = inactive
RabX1 [DRSC04678]: Kc cell number, rep 1 = 1.44e6; Kc cell number, rep 2 = 1.51e6; S2R+ cell number, rep 1 = 1.25e6; S2R+ cell number, rep 2 = 1.36e6; Outcome = inactive
dpr3 [DRSC00395]: Kc cell number, rep 1 = 1.52e6; Kc cell number, rep 2 = 1.58e6; S2R+ cell number, rep 1 = 1.01e6; S2R+ cell number, rep 2 = 1.16e6; Outcome = inactive
dpr3 [DRSC00396]: Kc cell number, rep 1 = 1.51e6; Kc cell number, rep 2 = 1.56e6; S2R+ cell number, rep 1 = 1.04e6; S2R+ cell number, rep 2 = 1.14e6; Outcome = inactive
Etfb [DRSC16324]: Kc cell number, rep 1 = 5.23e5; S2R+ cell number, rep 1 = 8.34e5; Outcome = inactive
mRpS22 [DRSC14488]: Kc cell number, rep 1 = 4.84e5; S2R+ cell number, rep 1 = 7.83e5; Outcome = inactive
CG8483 [DRSC16430]: Kc cell number, rep 1 = 1.58e6; Kc cell number, rep 2 = 1.62e6; S2R+ cell number, rep 1 = 1.40e6; S2R+ cell number, rep 2 = 1.50e6; Outcome = inactive
pps [DRSC16057]: Kc cell number, rep 1 = 1.49e6; Kc cell number, rep 2 = 1.61e6; S2R+ cell number, rep 1 = 1.23e6; S2R+ cell number, rep 2 = 1.43e6; Outcome = inactive
Ubc10 [DRSC07568]: Kc cell number, rep 1 = 1.35e6; Kc cell number, rep 2 = 1.44e6; S2R+ cell number, rep 1 = 9.56e5; S2R+ cell number, rep 2 = 1.07e6; Outcome = inactive
side-V [DRSC04188]: Kc cell number, rep 1 = 1.35e6; Kc cell number, rep 2 = 1.23e6; S2R+ cell number, rep 1 = 9.12e5; S2R+ cell number, rep 2 = 1.05e6; Outcome = inactive
Sptr [DRSC18719]: Kc cell number, rep 1 = 5.71e5; S2R+ cell number, rep 1 = 8.39e5; Outcome = inactive

Records listed so far whose target name starts with P or p:
Pli [DRSC16792]: Kc cell number, rep 1 = 1.58e6; Kc cell number, rep 2 = 1.72e6; S2R+ cell number, rep 1 = 1.34e6; S2R+ cell number, rep 2 = 1.39e6; Outcome = inactive
pps [DRSC16057]: Kc cell number, rep 1 = 1.49e6; Kc cell number, rep 2 = 1.61e6; S2R+ cell number, rep 1 = 1.23e6; S2R+ cell number, rep 2 = 1.43e6; Outcome = inactive

Further entries follow.
Cog1 [DRSC15661]: Kc cell number, rep 1 = 1.64e6; Kc cell number, rep 2 = 1.64e6; S2R+ cell number, rep 1 = 1.20e6; S2R+ cell number, rep 2 = 1.33e6; Outcome = inactive
CG14657 [DRSC12219]: Kc cell number, rep 1 = 1.84e6; Kc cell number, rep 2 = 1.93e6; S2R+ cell number, rep 1 = 1.38e6; S2R+ cell number, rep 2 = 1.49e6; Outcome = inactive
CG14657 [DRSC12243]: Kc cell number, rep 1 = 1.62e6; Kc cell number, rep 2 = 1.68e6; S2R+ cell number, rep 1 = 1.17e6; S2R+ cell number, rep 2 = 1.29e6; Outcome = inactive
THG [DRSC01896]: Kc cell number, rep 1 = 1.52e6; Kc cell number, rep 2 = 1.59e6; S2R+ cell number, rep 1 = 1.22e6; S2R+ cell number, rep 2 = 1.38e6; Outcome = inactive
Spn88Ea [DRSC17061]: Kc cell number, rep 1 = 1.21e6; Kc cell number, rep 2 = 1.24e6; S2R+ cell number, rep 1 = 1.09e6; S2R+ cell number, rep 2 = 1.22e6; Outcome = inactive
CG18417 [DRSC10319]: Kc cell number, rep 1 = 1.43e6; Kc cell number, rep 2 = 1.32e6; S2R+ cell number, rep 1 = 1.14e6; S2R+ cell number, rep 2 = 1.20e6; Outcome = inactive
Cpr31A [DRSC02779]: Kc cell number, rep 1 = 1.47e6; Kc cell number, rep 2 = 1.57e6; S2R+ cell number, rep 1 = 1.22e6; S2R+ cell number, rep 2 = 1.32e6; Outcome = inactive
CG18788 [DRSC02697]: Kc cell number, rep 1 = 1.53e6; Kc cell number, rep 2 = 1.68e6; S2R+ cell number, rep 1 = 1.18e6; S2R+ cell number, rep 2 = 1.29e6; Outcome = inactive
stretch (retired record) [DRSC14347]: Kc cell number, rep 1 = 1.81e6; Kc cell number, rep 2 = 1.85e6; S2R+ cell number, rep 1 = 9.75e5; S2R+ cell number, rep 2 = 1.07e6; Outcome = inactive
stretch (retired record) [DRSC14512]: Kc cell number, rep 1 = 1.59e6; Kc cell number, rep 2 = 1.63e6; S2R+ cell number, rep 1 = 1.34e6; S2R+ cell number, rep 2 = 1.46e6; Outcome = inactive
stretch (retired record) [DRSC14541]: Kc cell number, rep 1 = 1.62e6; Kc cell number, rep 2 = 1.64e6; S2R+ cell number, rep 1 = 1.38e6; S2R+ cell number, rep 2 = 1.41e6; Outcome = inactive
stretch (retired record) [DRSC14542]: Kc cell number, rep 1 = 1.51e6; Kc cell number, rep 2 = 1.65e6; S2R+ cell number, rep 1 = 1.35e6; S2R+ cell number, rep 2 = 1.46e6; Outcome = inactive
stretch (retired record) [DRSC14543]: Kc cell number, rep 1 = 1.44e6; Kc cell number, rep 2 = 1.56e6; S2R+ cell number, rep 1 = 1.40e6; S2R+ cell number, rep 2 = 1.43e6; Outcome = inactive
Cpr64Ad [DRSC08284]: Kc cell number, rep 1 = 1.69e6; Kc cell number, rep 2 = 1.42e6; S2R+ cell number, rep 1 = 1.04e6; S2R+ cell number, rep 2 = 1.38e6; Outcome = inactive
Rh4 + sina [DRSC11396]: Kc cell number, rep 1 = 1.51e6; Kc cell number, rep 2 = 1.58e6; S2R+ cell number, rep 1 = 1.25e6; S2R+ cell number, rep 2 = 1.26e6; Outcome = inactive
trpl [DRSC06728]: Kc cell number, rep 1 = 1.96e6; Kc cell number, rep 2 = 1.94e6; S2R+ cell number, rep 1 = 1.48e6; S2R+ cell number, rep 2 = 1.72e6; Outcome = inactive
trpl [DRSC06729]: Kc cell number, rep 1 = 1.83e6; Kc cell number, rep 2 = 1.87e6; S2R+ cell number, rep 1 = 1.31e6; S2R+ cell number, rep 2 = 1.51e6; Outcome = inactive
